Experimental data taken from paper PMC7029883.
Results are given in words; binding and its absence hold for the method and conditions named. Binding seen in cells or lysates may run through a third protein. Some results given as binding are weak or reduced against the parent protein; the word gives no strength. Tags and fused reporters may be left off the sequences shown.

Sequences of proteins named here, by UniProt entry; tags and fusion partners are left off.
UniProt Q7Z434: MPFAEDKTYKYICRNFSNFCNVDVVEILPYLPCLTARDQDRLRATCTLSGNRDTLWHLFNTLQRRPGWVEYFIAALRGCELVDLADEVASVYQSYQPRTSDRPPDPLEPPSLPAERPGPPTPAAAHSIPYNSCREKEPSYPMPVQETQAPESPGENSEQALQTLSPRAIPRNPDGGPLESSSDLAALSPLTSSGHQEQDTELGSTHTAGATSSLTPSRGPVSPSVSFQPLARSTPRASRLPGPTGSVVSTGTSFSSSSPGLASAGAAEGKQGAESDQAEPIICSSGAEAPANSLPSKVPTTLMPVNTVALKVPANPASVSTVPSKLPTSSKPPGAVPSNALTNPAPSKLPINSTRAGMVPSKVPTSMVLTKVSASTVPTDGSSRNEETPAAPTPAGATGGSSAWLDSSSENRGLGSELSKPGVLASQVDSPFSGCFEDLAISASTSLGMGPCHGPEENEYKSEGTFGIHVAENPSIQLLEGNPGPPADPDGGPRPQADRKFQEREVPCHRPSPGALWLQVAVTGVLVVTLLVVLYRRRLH

Legend:
[1] = target: Flag-tagged MAVS (human) (UniProt Q7Z434); test: co-IP; HEK293T cells co-transfected with Flag-tagged baits and USP27X constructs; lysis in 0.5% Triton X-100, 20 mM Tris-HCl pH 7.5, 150 mM NaCl, 10% glycerol, 1 mM EDTA; anti-Flag agarose beads 4 h; washes with 300 mM NaCl; immunoblot
[2] = target: T1, Flag-tagged full-length RIG-I (human) (UniProt O95786); test: as above
T1 sequence: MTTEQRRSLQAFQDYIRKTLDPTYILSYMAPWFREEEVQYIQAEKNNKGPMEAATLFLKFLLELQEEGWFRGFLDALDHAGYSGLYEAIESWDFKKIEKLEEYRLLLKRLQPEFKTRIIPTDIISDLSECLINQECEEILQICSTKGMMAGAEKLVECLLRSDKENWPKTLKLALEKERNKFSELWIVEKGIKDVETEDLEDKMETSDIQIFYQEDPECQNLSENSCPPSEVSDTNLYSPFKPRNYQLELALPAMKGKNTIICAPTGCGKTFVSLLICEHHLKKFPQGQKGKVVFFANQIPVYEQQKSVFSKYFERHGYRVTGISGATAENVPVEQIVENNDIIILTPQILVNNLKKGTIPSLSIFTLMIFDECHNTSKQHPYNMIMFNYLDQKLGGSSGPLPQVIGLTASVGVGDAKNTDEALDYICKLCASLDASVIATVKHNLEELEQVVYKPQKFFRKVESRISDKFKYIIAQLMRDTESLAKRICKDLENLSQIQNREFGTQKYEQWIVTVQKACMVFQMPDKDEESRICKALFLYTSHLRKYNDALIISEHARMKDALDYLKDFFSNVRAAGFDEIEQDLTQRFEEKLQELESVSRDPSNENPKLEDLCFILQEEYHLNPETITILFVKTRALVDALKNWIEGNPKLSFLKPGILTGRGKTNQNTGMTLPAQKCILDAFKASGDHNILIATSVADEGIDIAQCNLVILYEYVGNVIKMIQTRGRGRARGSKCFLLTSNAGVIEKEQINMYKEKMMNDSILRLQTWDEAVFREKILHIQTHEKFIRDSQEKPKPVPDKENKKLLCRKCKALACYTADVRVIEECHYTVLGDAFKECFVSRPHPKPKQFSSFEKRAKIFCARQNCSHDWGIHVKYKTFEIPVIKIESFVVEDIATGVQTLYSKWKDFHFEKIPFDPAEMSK

[3] = target: T2, RIG-I (endogenous, HEK293T) (human (endogenous in HEK293T)) (UniProt O95786); test: co-IP; semi-endogenous IP: HEK293T cells transfected with Myc-USP27X or Myc-USP27X-72, mock-infected or infected with SeV for 12 h; lysates with anti-RIG-I antibody overnight at 4°C, then protein A/G beads 2 h; immunoblot
T2 sequence: T1 sequence

[4] = target: T3, Flag-tagged USP27X (human) (UniProt A6NNY8); test: co-IP; HepG2 cells transfected with Flag-USP27X or Flag-USP27X-72, mock-infected or infected with SeV for 18 h; anti-Flag beads; immunoblot for endogenous components
T3 sequence: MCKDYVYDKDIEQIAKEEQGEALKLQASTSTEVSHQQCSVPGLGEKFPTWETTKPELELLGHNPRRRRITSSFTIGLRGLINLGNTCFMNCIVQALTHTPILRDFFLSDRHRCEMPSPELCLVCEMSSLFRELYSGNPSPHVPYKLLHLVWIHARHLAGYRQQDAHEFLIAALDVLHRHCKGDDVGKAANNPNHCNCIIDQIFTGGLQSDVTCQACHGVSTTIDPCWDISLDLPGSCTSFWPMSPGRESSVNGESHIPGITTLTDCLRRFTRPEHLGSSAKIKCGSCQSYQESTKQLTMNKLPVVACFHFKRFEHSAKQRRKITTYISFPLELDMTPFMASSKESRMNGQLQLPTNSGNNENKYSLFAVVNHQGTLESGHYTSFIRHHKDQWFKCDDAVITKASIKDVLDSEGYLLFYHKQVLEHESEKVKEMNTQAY

B1: Myc-tagged USP27X (enzyme, UniProt A6NNY8 1-438)
chain: T3 sequence
For B1, the binding [1] was “binds”, the binding [2] was “binds” and the binding [3] was “binds”.

B2: RIG-I (endogenous, HepG2) (protein, UniProt O95786-1 1-925)
chain: T1 sequence
B2 was tested, and the binding [4] was “binds”.
